{
  "source": "PubChem BioAssay AID330",
  "about": "(DTP/NCI, 2004)",
  "tested_on": "P388 leukemia ip, CD2F1 mice, survival T/C",
  "test": "NCI In Vivo Anticancer Drug Screen. Data for tumor model P388 Leukemia (intraperitoneal) in CD2F1 (CDF1) mice",
  "conditions": "T/C endpoint: median survival time, higher T/C = longer survival",
  "key": {"[1]": {"conditions": "dose: 400.0 mg/kg/injection, schedule: Q01DX009 (ip), vehicle: saline with Tween-80"}, "[2]": {"conditions": "dose: 50.0 mg/kg/injection, schedule: Q01DX009 (ip), vehicle: saline"}, "[3]": {"conditions": "dose: 100.0 mg/kg/injection, schedule: Q01DX009 (ip), vehicle: saline"}, "[4]": {"conditions": "dose: 200.0 mg/kg/injection, schedule: Q01DX009 (ip), vehicle: saline"}, "[5]": {"conditions": "dose: 120.0 mg/kg/injection, schedule: Q01DX005 (ip), vehicle: saline with Tween-80"}, "[6]": {"conditions": "dose: 240.0 mg/kg/injection, schedule: Q01DX005 (ip), vehicle: saline with Tween-80"}, "[7]": {"conditions": "dose: 120.0 mg/kg/injection, schedule: Q01DX005 (ip), vehicle: saline"}, "[8]": {"conditions": "dose: 240.0 mg/kg/injection, schedule: Q01DX005 (ip), vehicle: saline"}},
  "note": "The list does not hold the whole screen: it is rich in T/C values a quarter to a half above the control, in often repeated tests (any T/C) and in doses without a T/C. Further doses and runs are listed elsewhere. T/C: endpoint of the treated group in % of that of the vehicle group. Some entries give survivors of the animals treated and no T/C: the source files T/C as zero there, which appears to mark a toxic dose or a test without result, not a measured value. Some survivor counts are full or nearly so, which does not show that the dose was tolerated: survival well below the control is almost never listed, so the zero probably covers shortened survival too. Survivors were counted at the toxicity check, usually on the fifth day, unless a day is given; later deaths do not show. Schedules are NCI's codes, taken here to give the interval after Q, in days (D) or hours (H), and the number of doses after X. Where survival is the endpoint, this PubChem deposit counts one and a half times the control or more as active, and values a quarter to a half above the control carry no call in these data; other NCI protocols may use other cut-offs. Some entries were tested several times; the results are listed from low to high.",
  "data": [
    {"smiles": "CSCCC(N)C(=O)O", "note": "(stereo unspecified)", "values": [
      {"measurement": "T/C", "setting": "dose: 150.0 mg/kg/injection, schedule: Q01DX009 (ip), vehicle: Klucel (hydroxypropylcellulose) (HPC)", "value": "125 % of control"},
      {"measurement": "T/C", "setting": "dose: 200.0 mg/kg/injection, schedule: Q01DX009 (ip), vehicle: saline with Tween-80", "value": "126 % of control"},
      {"measurement": "T/C", "setting": "[1]", "value": "137 % of control"}
    ]},
    {"smiles": "CC(CN(C)C)Nc1c2ccccc2nc2cccc([N+](=O)[O-])c12", "note": "(stereo unspecified)", "values": [
      {"measurement": "survivor count", "setting": "dose: 0.79 mg/kg/injection, schedule: Q01DX009 (ip), vehicle: saline", "value": "5 of 6"},
      {"measurement": "survivor count", "setting": "dose: 3.12 mg/kg/injection, schedule: Q01DX009 (ip), vehicle: saline", "value": "0 of 6"},
      {"measurement": "survivor count", "setting": "dose: 6.25 mg/kg/injection, schedule: Q01DX009 (ip), vehicle: saline", "value": "0 of 6"},
      {"measurement": "survivor count", "setting": "dose: 12.5 mg/kg/injection, schedule: Q01DX009 (ip), vehicle: saline", "value": "0 of 6"},
      {"measurement": "survivor count", "setting": "[2]", "value": "0 of 6"},
      {"measurement": "survivor count", "setting": "[3]", "value": "0 of 6"},
      {"measurement": "survivor count", "setting": "[4]", "value": "0 of 6"}
    ]},
    {"smiles": "CCC(=O)c1c(O)c2ccccc2oc1=O", "values": [
      {"measurement": "survivor count", "setting": "[5]", "value": "2 of 6"},
      {"measurement": "survivor count", "setting": "[6]", "value": "0 of 6"}
    ]},
    {"smiles": "CC(C)c1nccn1Cc1ccccc1", "values": [
      {"measurement": "survivor count", "setting": "[7]", "value": "0 of 6"},
      {"measurement": "survivor count", "setting": "[8]", "value": "0 of 6"}
    ]},
    {"smiles": "CC(CN(C)C)C(=O)/C=C/c1ccc(F)cc1", "note": "(stereo unspecified)", "values": [
      {"measurement": "T/C", "setting": "[7]", "value": "127 and 129 % of control"},
      {"measurement": "survivor count", "setting": "[8]", "value": "0 of 6"}
    ]},
    {"smiles": "N#Cc1c(C#N)c(O)c2c(N)cccc2c1O", "values": [
      {"measurement": "survivor count", "setting": "dose: 400.0 mg/kg/injection, schedule: Q04DX002 (ip), vehicle: saline with Tween-80", "value": "0 of 6"}
    ]},
    {"smiles": "O=C(Oc1ccccc1)c1cc2ccccc2cc1O", "values": [
      {"measurement": "survivor count", "setting": "[2]", "value": "6 of 6"},
      {"measurement": "survivor count", "setting": "[3]", "value": "6 of 6"},
      {"measurement": "survivor count", "setting": "[4]", "value": "5 of 6"}
    ]},
    {"smiles": "NC1CCC2CCCCC2C1", "note": "(stereo unspecified)", "values": [
      {"measurement": "survivor count", "setting": "dose: 400.0 mg/kg/injection, schedule: Q01DX001 (ip), vehicle: saline", "value": "1 of 6"}
    ]},
    {"smiles": "N#CC(=O)Nc1cccc(Cl)c1", "values": [
      {"measurement": "survivor count", "setting": "dose: 60.0 mg/kg/injection, schedule: Q01DX005 (ip), vehicle: saline with Tween-80", "value": "0 of 6"},
      {"measurement": "survivor count", "setting": "[5]", "value": "0 of 6"},
      {"measurement": "survivor count", "setting": "[6]", "value": "0 of 6"}
    ]},
    {"smiles": "C/C(=N\\N=Nc1ccc(N(C)C)cc1)c1ccccc1", "values": [
      {"measurement": "survivor count", "setting": "dose: 240.0 mg/kg/injection, schedule: Q01DX005 (ip), vehicle: Klucel + Tween-80", "value": "2 of 6"}
    ]},
    {"smiles": "CC1=CC(=O)C=CC1(C)C(Cl)(Cl)Cl", "note": "(stereo unspecified)", "values": [
      {"measurement": "survivor count", "setting": "[1]", "value": "4 of 6"}
    ]}
  ]
}
